Four substances from US20070249526A1 (priority 2003, published 2007) can be followed below.

“And” between values parts separate entries of the source, which are not always exact repeats. Identical values can stand only once.

The nature of this data set: general procedure: solution-phase peptide synthesis; BOP/DIPEA (fragment coupling and cyclisation); Example 19: HBTU/DIPEA, PyBOP/HOB. As to conditions: for isolated yield: scale of the general procedure 100 g linear hexapeptide per cyclisation batch.
Setting [1] is: late stage modification step, TFA salt, acetate salt.

With Ac-Phe-Orn(Boc)-Pro-D-Cha-Trp-Arg-OH, the “crude purity (method not given)” value (coupling step, 1H nmr, ISMS and rpHPLC, TFA salt, acetate salt) is reported as above 94%; the “crude purity (method not given)” value (coupling step, analytical rpHPLC (214 nm), 1H nmr, ISMS, TFA salt, acetate salt) is above 94%. In addition, the step yield is reported as 80% (coupling step, TFA salt, acetate salt, run 1); 72% (coupling step, TFA salt, acetate salt, run 2); 96% under setting [1].

AcPheOrn(Boc)Pro(d)ChaTrp(For)ArgOEt: for the setting “coupling step, TFA salt, acetate salt”, the step yield was 90%.

For the substance Ac-Phe[Orn-Pro-D-Cha-Trp-Arg], the cyclisation yield result was “about 74%” (cyclisation step, 2TFA, side-chain lactam ring); 49% and 51% and 33% (cyclisation step, TFA salt, acetate salt, side-chain lactam ring, run 1). Also, the “crude HPLC purity” value (cyclisation step, 214 nm, TFA salt, acetate salt, side-chain lactam ring) is on record as “greater than 90%”. Moreover, the “final purity (method not given)” value (cyclisation step, analytical rpHPLC (214 nm), 1H nmr, ISMS, TFA salt, acetate salt, side-chain lactam ring) is reported as above 97%. Under “whole synthesis, TFA salt, acetate salt, side-chain lactam ring”, the isolated mass was 64 g. In addition, the isolated yield (whole synthesis, overall from commercially available amino acids, TFA salt, acetate salt, side-chain lactam ring) is given as 12.5% and the isolated yield (whole synthesis, overall, 2HOAc, side-chain lactam ring) is on record as 25%.

Take Ac-Phe-Orn-Pro-Cha-Trp-Arg-OH: the “crude purity (method not given)” value is, setting by setting: (late stage modification step, 1H nmr, ISMS and rpHPLC, TFA salt, acetate salt) “greater than 93%”; (late stage modification step, analytical rpHPLC (214 nm), 1H nmr, ISMS, TFA salt, acetate salt) above 95%. Besides, the step yield under setting [1] amounted to 95%.
